# Source: the supplement of paper PMC11542785
# Counter-ions that a name gives are not always drawn. The list shows a part of the results. Most values come without repeats; read them as rough.
# Test system: Drosophila melanogaster DPAGT1 (Alg7) RNAi eye model
# Experiment: eye size Z-score vs DMSO-treated DPAGT1 model flies; higher = larger eye (suppression of DPAGT1 phenotype)
# Conditions: 5 uM
SMILES,eye size Z-score,eye size Z-score (female)
CC(=O)S[C@@H]1CC2=CC(=O)CC[C@]2(C)[C@H]2CC[C@@]3(C)[C@@H](CC[C@@]34CCC(=O)O4)[C@H]12 [Spironolactone],-0.03,–
CCCc1cc(C(N)=S)ccn1 [Prothionamide],1.4,–
CC(Cc1cccc(C(F)(F)F)c1)NCCOC(=O)c1ccccc1 (stereo unspecified) [Benfluorex],1.11,–
C=C1CC[C@H](O)C/C1=C/C=C1\CCC[C@]2(C)[C@@H]([C@H](C)CCCC(C)C)CC[C@@H]12 [Cholecalciferol],0.92,–
NNCCc1ccccc1 [Phenelzine sulfate],-1.18,–
C[C@H]1O[C@H](O[C@H]2[C@H](O)[C@@H](O)[C@@H](O[C@H]3[C@H](O)[C@@H](O)C(O)O[C@@H]3CO)O[C@@H]2CO)[C@H](O)[C@@H](O)[C@@H]1N[C@H]1C=C(CO)[C@@H](O)[C@H](O)[C@H]1O (stereo partly specified) [Acarbose],-0.24,–
CC(C)(CO)[C@@H](O)C(=O)NCCC(=O)NCCSSCCNC(=O)CCNC(=O)[C@H](O)C(C)(C)CO [D-Pantethine],0.4,–
CN1CCC(=C2c3ccccc3C=Cc3ccccc32)CC1 [Cyproheptadine hydrochloride],-0.09,–
CC(C)(C)NC[C@@H](O)COc1cccc2c1CCCC2=O [(+) Levobunolol hydrochloride],0.64,–
CO[C@H]1/C=C/O[C@@]2(C)Oc3c(C)c(O)c4c(O)c(c(/C=N/N5CCN(C6CCCC6)CC5)c(O)c4c3C2=O)NC(=O)/C(C)=C\C=C\[C@H](C)[C@H](O)[C@@H](C)[C@@H](O)[C@@H](C)[C@H](OC(C)=O)[C@@H]1C [Rifapentine],0.75,–
N=C(N)NC(=N)NCCc1ccccc1 [Phenformin hydrochloride],0.89,–
NCCc1c[nH]cn1 [Histamine dihydrochloride],-0.08,–
OC(Cn1cncn1)(Cn1cncn1)c1ccc(F)cc1F [Fluconazole],-0.62,–
CCCOc1cc(N)ccc1C(=O)OCCN(CC)CC [Propoxycaine hydrochloride],1.06,–
C[C@@H](NCCCc1cccc(C(F)(F)F)c1)c1cccc2ccccc12 [Cinacalcet hydrochloride],–,0.63
CC[N+](C)(C)c1cccc(O)c1 [Edrophonium chloride],0.97,–
OCCN1CCN(CC/C=C2/c3ccccc3Sc3ccc(C(F)(F)F)cc32)CC1 [Flupentixol dihydrochloride cis-(Z)],0.01,–
Cc1cn[nH]c1 [Fomepizole],-0.66,–
CC(=O)OCC(=O)[C@@]1(O)CC[C@H]2[C@@H]3CCC4=CC(=O)C=C[C@]4(C)[C@@]3(Cl)[C@@H](Cl)C[C@@]21C [Dichlorisone acetate],-0.02,–
CCCCN(CCCC)CCCOC(=O)c1ccc(N)cc1 [Butacaine],-0.81,–
Cc1ccc(C(=O)c2ccc(CC(=O)O)n2C)cc1 [Tolmetin sodium salt dihydrate],0.21,–
COC(=O)Nc1nc2cc(C(=O)c3cccs3)ccc2[nH]1 [Nocodazole],-0.74,–
CC[N+](C)(CC)CCOC(=O)C1c2ccccc2Oc2ccccc21 [Methantheline bromide],0.05,–
CC(=O)OCC(=O)[C@@]1(O)CC[C@H]2[C@@H]3CCC4=CC(=O)CC[C@]4(C)[C@@]3(F)[C@@H](O)C[C@@]21C [Fludrocortisone acetate],-0.84,–

# Reprinted from the results shown (two entries):
SMILES,eye size Z-score,eye size Z-score (female)
OCCN1CCN(CC/C=C2/c3ccccc3Sc3ccc(C(F)(F)F)cc32)CC1 [Flupentixol dihydrochloride cis-(Z)],0.01,–
Cc1cn[nH]c1 [Fomepizole],-0.66,–

# The list continues.

SMILES,eye size Z-score,eye size Z-score (female)
NS(=O)(=O)c1cc(C2(O)NC(=O)c3ccccc32)ccc1Cl (stereo unspecified) [Chlorthalidone],0.14,–
C=CC(N)CCC(=O)O (stereo unspecified) [Vigabatrin hydrochloride],0.45,–
CC(=O)OCC(=O)[C@@]1(O)CC[C@H]2[C@@H]3CCC4=CC(=O)CC[C@]4(C)[C@H]3[C@@H](O)C[C@@]21C [Cortisol acetate],0.67,–
Cc1ncc(C[n+]2csc(CCO)c2C)c(N)n1 [Thiamine hydrochloride],-0.28,–
CC(C)c1c(C(=O)Nc2ccccc2)c(-c2ccccc2)c(-c2ccc(F)cc2)n1CC[C@@H](O)C[C@@H](O)CC(=O)O [Atorvastatin],-1.91,–
CCN[C@H]1CN(CCCOC)S(=O)(=O)c2sc(S(N)(=O)=O)cc21 [Brinzolamide],-0.89,–
CC(=O)Oc1ccccc1C(=O)Nc1ncc([N+](=O)[O-])s1 [Nitazoxanide],-0.52,–
CCN(CC)CCOC(=O)C1(C2CCCCC2)CCCCC1 [Dicyclomine hydrochloride],1.22,–
CCCCOCCOCCOCc1cc2c(cc1CCC)OCO2 [Piperonyl butoxide],0.26,–
CC(N/C(=N\C#N)Nc1ccncc1)C(C)(C)C (stereo unspecified) [Pinacidil monohydrate],-0.09,–
CCCCC(O)c1ccccc1 (stereo unspecified) [Fenipentol],-1.17,–
CN(C)CCCN1c2ccccc2Sc2ccc(C(F)(F)F)cc21 [Triflupromazine hydrochloride],–,-0.35
COc1cc(C(=O)OCCCN2CCCN(CCCOC(=O)c3cc(OC)c(OC)c(OC)c3)CC2)cc(OC)c1OC [Dilazep dihydrochloride],-0.25,–
O=C1c2c(O)cccc2Cc2cccc(O)c21 [Anthralin],1.31,–
C[C@@H]1C[C@H]2[C@@H]3C[C@H](F)C4=CC(=O)C=C[C@]4(C)[C@@]3(F)[C@@H](O)C[C@]2(C)[C@@]1(O)C(=O)CO [Flumethasone],0.39,–
O=C(O)Cc1ccc(-c2ccccc2)cc1 [Felbinac],0.22,–
O=C(O)c1cn(-c2ccc(F)cc2)c2cc(N3CCNCC3)c(F)cc2c1=O [Sarafloxacin],-0.35,–
C[N+]1(C)CCC(OC(=O)C(O)(c2ccccc2)C2CCCC2)C1 (stereo unspecified) [Glycopyrrolate bromide],0.27,–
Clc1ccc(CCC(Cn2ccnc2)Sc2c(Cl)cccc2Cl)cc1 (stereo unspecified) [Butoconazole nitrate],-0.93,–
N#Cc1ccc(C(c2ccc(C#N)cc2)n2cncn2)cc1 [Letrozole],-0.41,–
N=C(NCCCCCCNC(=N)NC(=N)Nc1ccc(Cl)cc1)NC(=N)Nc1ccc(Cl)cc1 [Chlorhexidine],-1.53,–
NCc1ccccc1CC(=O)N[C@@H]1C(=O)N2C(C(=O)O)=C(CSc3nnnn3CC(=O)O)CS[C@H]12 [Ceforanide],0.1,–
CN1CCN(C2=Nc3ccccc3Oc3ccc(Cl)cc32)CC1 [Loxapine succinate],-0.27,–
Oc1c(Br)cc(Br)c2cccnc12 [Broxyquinoline],0.2,–

# Laid out differently: 3 of the compounds above.
SMILES | eye size Z-score | eye size Z-score (female)
Clc1ccc(CCC(Cn2ccnc2)Sc2c(Cl)cccc2Cl)cc1 (stereo unspecified) [Butoconazole nitrate] | -0.93 | –
N=C(NCCCCCCNC(=N)NC(=N)Nc1ccc(Cl)cc1)NC(=N)Nc1ccc(Cl)cc1 [Chlorhexidine] | -1.53 | –
NCc1ccccc1CC(=O)N[C@@H]1C(=O)N2C(C(=O)O)=C(CSc3nnnn3CC(=O)O)CS[C@H]12 [Ceforanide] | 0.1 | –

# The listing continues:

SMILES,eye size Z-score,eye size Z-score (female)
COc1ccc(CC(C)NCC(O)c2ccc(O)c(NC=O)c2)cc1 (stereo unspecified) [Formoterol fumarate],-0.25,–
CCOC(=O)N1CCC(=C2c3ccc(Cl)cc3CCc3cccnc32)CC1 [Loratadine],0.15,–
CC(=O)[C@@]12O[C@](C)(c3ccccc3)O[C@@H]1C[C@H]1[C@@H]3CCC4=CC(=O)CC[C@]4(C)[C@H]3CC[C@@]12C [Algestone acetophenide],0.54,–
COC(=O)[C@H](c1ccccc1Cl)N1CCc2sccc2C1 [Clopidogrel],-0.03,–
C[C@]12CCC(=O)C=C1CC[C@@H]1[C@@H]2C(=O)C[C@@]2(C)[C@H]1CC[C@]2(O)C(=O)CO [Cortisone],0.42,–
COCCCC/C(=N\OCCN)c1ccc(C(F)(F)F)cc1 [Fluvoxamine maleate],–,1.22
C[C@H](N[C@@H](CCc1ccccc1)C(=O)O)C(=O)N1CCC[C@H]1C(=O)O [Enalaprilat dihydrate],0.64,–
CN(C)[C@@H]1C(O)=C(C(N)=O)C(=O)[C@@]2(O)C(O)=C3C(=O)c4c(O)cccc4[C@@](C)(O)[C@H]3C[C@@H]12 [Tetracycline hydrochloride],1.08,–
Cc1ccc(N(CC2=NCCN2)c2cccc(O)c2)cc1 [Phentolamine hydrochloride],-0.06,–
CCc1ccc(CCOc2ccc(CC3SC(=O)NC3=O)cc2)nc1 (stereo unspecified) [Pioglitazone],0.29,–
Cc1c(Cl)cccc1Nc1ccccc1C(=O)O [Tolfenamic acid],-0.15,–
CCCSc1ccc2[nH]c(NC(=O)OC)nc2c1 [Albendazole],1.02,–
CO[C@H]1/C=C/O[C@@]2(C)Oc3c(C)c(O)c4c(O)c(c(/C=N/N5CCN(C)CC5)c(O)c4c3C2=O)NC(=O)/C(C)=C\C=C\[C@H](C)[C@H](O)[C@@H](C)[C@@H](O)[C@@H](C)[C@H](OC(C)=O)[C@@H]1C [Rifampicin],-0.43,–
CC(C(=O)O)c1ccc(CC2CCCC2=O)cc1 (stereo unspecified) [Loxoprofen],0.34,–
CC[C@H]1OC(=O)[C@H](C)[C@@H](O[C@H]2C[C@@](C)(OC)[C@@H](O)[C@H](C)O2)[C@H](C)[C@@H](O[C@@H]2O[C@H](C)C[C@H](N(C)C)[C@H]2O)[C@](C)(O)C[C@@H](C)C(=O)[C@H](C)[C@@H](O)[C@]1(C)O [Erythromycin],0.2,–
c1ccc(CC2=NCCN2)cc1 [Tolazoline hydrochloride],-0.05,–
OCCN1CCN(CCCN2c3ccccc3Sc3ccc(C(F)(F)F)cc32)CC1 [Fluphenazine dihydrochloride],-1.15,–
CC(C)(Oc1ccc(CCNC(=O)c2ccc(Cl)cc2)cc1)C(=O)O [Bezafibrate],0.11,–
O=C1c2ccccc2C(=O)C1c1ccccc1 [Phenindione],0.87,–
Clc1ccc2c(c1)C(N1CCNCC1)=Nc1ccccc1O2 [Amoxapine],-0.89,–
O=C(O)CCc1nc(-c2ccccc2)c(-c2ccccc2)o1 [Oxaprozin],-0.71,–
C[C@H](NCc1ccc(OCc2cccc(F)c2)cc1)C(N)=O [Safinamide],1.26,–
CC(=O)OCC(=O)NCCCOc1cccc(CN2CCCCC2)c1 [Roxatidine acetate hydrochloride],–,-0.51
